Cleaved PARP after 72 h of treatment

From a melanoma drug combination screen (doi:10.1371/journal.pone.0140310); values rounded.

Compounds and concentrations:
vorinostat (400 nM): O=C(CCCCCCC(=O)Nc1ccccc1)NO
FH535 (5000 nM): Cc1cc([N+](=O)[O-])ccc1NS(=O)(=O)c1cc(Cl)ccc1Cl
GW441756 (2000 nM): Cn1cc(/C=C2\C(=O)Nc3cccnc32)c2ccccc21
lenalidomide (5000 nM): Nc1cccc2c1CN(C1CCC(=O)NC1=O)C2=O (stereo not drawn)
CP-690550 (5000 nM): C[C@@H]1CCN(C(=O)CC#N)C[C@@H]1N(C)c1ncnc2[nH]ccc12
MK-1775 (100 nM): C=CCn1c(=O)c2cnc(Nc3ccc(N4CCN(C)CC4)cc3)nc2n1-c1cccc(C(C)(C)O)n1
GW0742 (10000 nM): Cc1cc(SCc2sc(-c3ccc(C(F)(F)F)c(F)c3)nc2C)ccc1OCC(=O)O
OSI-906 (2000 nM): C[C@]1(O)C[C@@H](c2nc(-c3ccc4ccc(-c5ccccc5)nc4c3)c3c(N)nccn32)C1

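Human melanoma cell lines in 1,536-well plates were treated with a pair of drugs for 72 h, then fixed, stained and imaged. Each value is the cleaved-PARP-positive fraction of nuclei relative to DMSO-treated wells, in %, so that 100 equals the control and higher values mean more apoptosis. Every drug was used at one fixed concentration, the higher of two screened. These are primary screening values without error estimates. Basal and induced levels differ widely between cell lines.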 Only some of the drugs and lines screened are listed, without regard to their results.

Combination	COLO 792	MEL-HO	UACC-257
FH535 + GW441756	78.2	153	99.7
MK-1775 + GW0742	130	54.4	52.7
CP-690550 + GW0742	160	42.9	18.7
CP-690550 + MK-1775	75.0	67.0	73.9
MK-1775 + vorinostat	129	91.3	85.8
OSI-906 + vorinostat	99.5	39.6	100
OSI-906 + GW441756	62.6	74.9	65.2
vorinostat + FH535	68.3	163	437
CP-690550 + OSI-906	95.1	77.7	39.9
GW0742 + FH535	110	75.9	155
GW441756 + GW0742	112	49.4	61.7
lenalidomide + vorinostat	186	78.4	108
OSI-906 + GW0742	42.9	83.6	34.3
MK-1775 + lenalidomide	111	33.5	37.6
GW441756 + lenalidomide	115	90.4	26.3
MK-1775 + OSI-906	65.6	72.8	86.7
GW0742 + lenalidomide	124	84.0	46.6
lenalidomide + OSI-906	66.1	155	77.0
MK-1775 + GW441756	167	183	26.9
FH535 + CP-690550	119	156	159
GW0742 + vorinostat	58.5	48.6	102